The experiment has as its system RAW 264.7. The experiment is described as follows: HMGB1-induced TNF-alpha production relative to HMGB1-stimulated control; higher = more TNF-alpha secretion (less inhibition). To be noted: stimulus: HMGB1 5 ug/ml, 18 h.
Setting [1] is: compound concentration: 1 ug/ml.

Counter-ions that a name gives are not always drawn. ± gives the standard deviation of the averaged measurements. The list shows a part of the results. Single values are uncertain, as repeats are few or missing.

Turning to `CC/C(=C(\c1ccccc1)c1ccc(OCCN(C)C)cc1)c1ccccc1` [Tamoxifen citrate], for the setting “compound concentration: 3 uM”, the “HMGB1-induced TNF-alpha production” value stood at 75.7 ± 22%.
As for `CC/C(=C(\c1ccccc1)c1ccc(OCCN(C)C)cc1)c1ccccc1`, under “compound concentration: 3 uM”, the “HMGB1-induced TNF-alpha production” value is 81.2%.
Regarding `CC/C(=C(\c1ccccc1)c1ccc(OCCN(C)C)cc1)c1ccccc1` [Tamoxifen], for the setting “compound concentration: 3 uM”, the “HMGB1-induced TNF-alpha production” value worked out at 79.8 ± 4.3%.
In the case of `CCCCC[C@H](O)/C=C/[C@H]1[C@H](O)CC(=O)[C@@H]1CCCCCCC(=O)O` [Alprostadil], where the note is “compound concentration: 3 uM”, the “HMGB1-induced TNF-alpha production” value came out at 48.7 ± 5.4%.
The same measure, in the same setting: as for `CCCCC[C@H](O)/C=C/[C@H]1[C@H](O)CC(=O)[C@@H]1CCCCCCC(=O)O` [Prostaglandin E1], the figure is 54.6%; as for `O=C(O)c1cccnc1C(=O)O` [Quinolinic acid], 111%; as for `O=C(O)c1ccccc1`, 99.3%.
Still for that read-out and setting: the figure for `CCN1CCC[C@H]1CNC(=O)c1c(O)c(Cl)cc(Cl)c1OC` [Raclopride] is 87.9 ± 15%.
Same read-out and setting: the figure for `CN(CC[C@@H](Oc1ccc(C(F)(F)F)cc1)c1ccccc1)CC(=O)[O-].[Li+]` is 88.3%.
Take `C=CC(C)(O)CCCC(C)CCCC(C)CCCC(C)C` (configuration not stated) [Isophytol]: under setting [1], the “HMGB1-induced TNF-alpha production” value was determined as 69.3%.
Regarding `CCOc1ccc(NC(C)=O)cc1`, the “HMGB1-induced TNF-alpha production” value (compound concentration: 3 uM) stood at 90%.
Still for that read-out and setting: as for `CCOc1ccc(NC(C)=O)cc1` [Phenacetin], the figure is 72.8%.
Still for that read-out and setting: as for `CN1CCC[C@@H]1CCO[C@](C)(c1ccccc1)c1ccc(Cl)cc1` [Clemastine fumarate], the figure is 71.4 ± 11%; as for `CN1CCC[C@@H]1CCO[C@](C)(c1ccccc1)c1ccc(Cl)cc1` [Clemastine], 102%.
For the compound `CN1CCC[C@@H]1CCO[C@](C)(c1ccccc1)c1ccc(Cl)cc1`, the “HMGB1-induced TNF-alpha production” value (compound concentration: 3 uM) turned out to be 67.9%.
Turning to `O=C(c1ccc(OCCCc2c[nH]cn2)cc1)C1CC1` [Ciproxifan hydrochloride], under “compound concentration: 3 uM”, the “HMGB1-induced TNF-alpha production” value was 87.5%.
Same read-out and setting: the figure for `CC(C(=O)O)c1ccc(C(=O)c2cccs2)cc1` (configuration not stated) [Suprofen] is 123%; for `CC(C(=O)O)c1ccc(C(=O)c2cccs2)cc1` (configuration not stated) it is 81.7%; for `COc1cc2ncnc(Nc3ccc(F)c(Cl)c3)c2cc1OCCCN1CCOCC1` [Gefitinib] it is 112 ± 17%.
`O=c1ccn([C@@H]2O[C@H](COP(=O)(O)OP(=O)(O)OP(=O)(O)O)[C@@H](O)[C@H]2O)c(=O)[nH]1` [Uridine 5'-triphosphate trisodium salt hydrate]: under setting [1], the “HMGB1-induced TNF-alpha production” value was 75.6%.
On to `CN(C)c1ccc(C(=C2C=CC(=[N+](C)C)C=C2)c2ccc(N(C)C)cc2)cc1`, for which the “HMGB1-induced TNF-alpha production” value (compound concentration: 3 uM) came out at 74.1%.
As for `COc1ccc(CC2c3cc(OC)c(OC)cc3CC[N+]2(C)CCC(=O)OCCCCCOC(=O)CC[N+]2(C)CCc3cc(OC)c(OC)cc3C2Cc2ccc(OC)c(OC)c2)cc1OC` (configuration not stated) [Atracurium], the “HMGB1-induced TNF-alpha production” value (compound concentration: 3 uM) is 67.1%.
On the same count and under the same terms, as for `COc1ccc(CC2c3cc(OC)c(OC)cc3CC[N+]2(C)CCC(=O)OCCCCCOC(=O)CC[N+]2(C)CCc3cc(OC)c(OC)cc3C2Cc2ccc(OC)c(OC)c2)cc1OC` (configuration not stated), the figure is 97.5%; as for `COc1ccc(CC2c3cc(OC)c(OC)cc3CC[N+]2(C)CCC(=O)OCCCCCOC(=O)CC[N+]2(C)CCc3cc(OC)c(OC)cc3C2Cc2ccc(OC)c(OC)c2)cc1OC` (configuration not stated) [Atracurium besylate], 76%; as for `CC(=O)[C@H]1CC[C@H]2[C@@H]3CC=C4C[C@@H](O)CC[C@]4(C)[C@H]3CC[C@]12C`, 82.7%.
On the same count and under the same terms, the figure for `CC(=O)[C@H]1CC[C@H]2[C@@H]3CC=C4C[C@@H](O)CC[C@]4(C)[C@H]3CC[C@]12C` [Pregnenolone] is 72 ± 7%.
On to `Oc1cc2c(cc1O)[C@@H]1c3ccc(O)c(O)c3OC[C@]1(O)C2` [Hematoxylin], for which the “HMGB1-induced TNF-alpha production” value under setting [1] is 78.1%.
As to `CCN(CCO)CCCC(C)Nc1ccnc2cc(Cl)ccc12` (configuration not stated), the “HMGB1-induced TNF-alpha production” value (compound concentration: 3 uM) amounted to 78.2%.
The same measure, in the same setting: as for `CCCCN1CCCCC1C(=O)Nc1c(C)cccc1C` (configuration not stated) [Bupivacaine], the figure is 82.2%; as for `CCCCN1CCCCC1C(=O)Nc1c(C)cccc1C` (configuration not stated), 70.5%.
Turning to `CCCCN1CCCCC1C(=O)Nc1c(C)cccc1C` (configuration not stated) [Bupivacaine hydrochloride], where the note is “compound concentration: 3 uM”, the “HMGB1-induced TNF-alpha production” value was found to be 65.4%.
Consider `CCOC(=O)NNc1nncc2ccccc12` [Todralazine hydrochloride], for which the “HMGB1-induced TNF-alpha production” value (compound concentration: 3 uM) was 81.5%.
Consider `CCOC(=O)NNc1nncc2ccccc12`, for which the “HMGB1-induced TNF-alpha production” value (compound concentration: 3 uM) came out at 66.2%.
In the case of `CC(C)(C)c1ccc(C(O)CCCN2CCC(C(O)(c3ccccc3)c3ccccc3)CC2)cc1` (configuration not stated) [Terfenadine], the “HMGB1-induced TNF-alpha production” value (compound concentration: 3 uM) was 94.8 ± 14%.
In the case of `CC(C)(C)c1ccc(C(O)CCCN2CCC(C(O)(c3ccccc3)c3ccccc3)CC2)cc1` (configuration not stated), the “HMGB1-induced TNF-alpha production” value (compound concentration: 3 uM) came out at 80.5%.
The same measure, in the same setting: as for `CC(COc1ccccc1)NC(C)C(O)c1ccc(O)cc1` (configuration not stated), the figure is 60.6%; as for `CC(COc1ccccc1)NC(C)C(O)c1ccc(O)cc1` (configuration not stated) [Isoxsuprine hydrochloride], 45.7%; as for `N[C@@H](Cc1ccc(O)c(I)c1)C(=O)O` [3-Iodo-L-tyrosine], 99.6%.
For `O=C(O)[C@H]1O[C@@H](Oc2cc3oc(-c4ccccc4)cc(=O)c3c(O)c2O)[C@H](O)[C@@H](O)[C@@H]1O` [Baicalin hydrate], the “HMGB1-induced TNF-alpha production” value under setting [1] was determined as 57%.
Regarding `Nc1ccc(S(=O)(=O)Nc2ccccn2)cc1` [Sulfapyridine], the “HMGB1-induced TNF-alpha production” value (compound concentration: 3 uM) came to 108%.
Same read-out and setting: as for `Nc1ccc(S(=O)(=O)Nc2ccccn2)cc1`, the figure is 85.6%.
The same measure, in the same setting: the figure for `CO[C@H]1C[C@H](O[C@H]2[C@H](C)[C@@H](O[C@@H]3O[C@H](C)C[C@H](N(C)C)[C@H]3O)[C@@H](C)C[C@@]3(CO3)C(=O)[C@H](C)[C@@H](O)[C@@H](C)[C@@H](C)OC(=O)[C@@H]2C)O[C@@H](C)[C@@H]1O` is 85.5 ± 3.5%.

The values above are taken from the supplement of paper PMC3682954.
